Test results as given in publication PMC9298926.
These are yes or no findings as the source states them, for the method shown. Binding seen in cells or lysates may run through a third protein. Binding can be weak; no strength is given. Tags and fused reporters may be left off the sequences shown.

Molecular target: SsPE14-YFP (SsPele1-YFP) (Sporisorium scitamineum)
Test: co-IP; transient co-expression in N. benthamiana leaves, 48 h; lysate in 50 mM Tris pH7.5, 150 mM NaCl, 10% glycerol, 2 mM EDTA, 5 mM DTT, 0.1% Triton; IP with GFP-Trap beads 2 h at 4°C; blots with anti-FLAG and anti-GFP

B1: AtPEPR1-FLAG (receptor, UniProt Q9SSL9 29-1123)
chain: LNSDGLTLLSLLKHLDRVPPQVTSTWKINASEATPCNWFGITCDDSKNVASLNFTRSRVSGQLGPEIGELKSLQILDLSTNNFSGTIPSTLGNCTKLATLDLSENGFSDKIPDTLDSLKRLEVLYLYINFLTGELPESLFRIPKLQVLYLDYNNLTGPIPQSIGDAKELVELSMYANQFSGNIPESIGNSSSLQILYLHRNKLVGSLPESLNLLGNLTTLFVGNNSLQGPVRFGSPNCKNLLTLDLSYNEFEGGVPPALGNCSSLDALVIVSGNLSGTIPSSLGMLKNLTILNLSENRLSGSIPAELGNCSSLNLLKLNDNQLVGGIPSALGKLRKLESLELFENRFSGEIPIEIWKSQSLTQLLVYQNNLTGELPVEMTEMKKLKIATLFNNSFYGAIPPGLGVNSSLEEVDFIGNKLTGEIPPNLCHGRKLRILNLGSNLLHGTIPASIGHCKTIRRFILRENNLSGLLPEFSQDHSLSFLDFNSNNFEGPIPGSLGSCKNLSSINLSRNRFTGQIPPQLGNLQNLGYMNLSRNLLEGSLPAQLSNCVSLERFDVGFNSLNGSVPSNFSNWKGLTTLVLSENRFSGGIPQFLPELKKLSTLQIARNAFGGEIPSSIGLIEDLIYDLDLSGNGLTGEIPAKLGDLIKLTRLNISNNNLTGSLSVLKGLTSLLHVDVSNNQFTGPIPDNLEGQLLSEPSSFSGNPNLCIPHSFSASNNSRSALKYCKDQSKSRKSGLSTWQIVLIAVLSSLLVLVVVLALVFICLRRRKGRPEKDAYVFTQEEGPSLLLNKVLAATDNLNEKYTIGRGAHGIVYRASLGSGKVYAVKRLVFASHIRANQSMMREIDTIGKVRHRNLIKLEGFWLRKDDGLMLYRYMPKGSLYDVLHGVSPKENVLDWSARYNVALGVAHGLAYLHYDCHPPIVHRDIKPENILMDSDLEPHIGDFGLARLLDDSTVSTATVTGTTGYIAPENAFKTVRGRESDVYSYGVVLLELVTRKRAVDKSFPESTDIVSWVRSALSSSNNNVEDMVTTIVDPILVDELLDSSLREQVMQVTELALSCTQQDPAMRPTMRDAVKLLEDVKHLARSCSSDSVR
With B1 the binding was “binds”.
